# Measured values from publication PMC12474915 (Nature Communications, 2025).
# Molecular target: T1, MET1MTase (Arabidopsis thaliana) (UniProt P34881)
# T1 sequence (looked up): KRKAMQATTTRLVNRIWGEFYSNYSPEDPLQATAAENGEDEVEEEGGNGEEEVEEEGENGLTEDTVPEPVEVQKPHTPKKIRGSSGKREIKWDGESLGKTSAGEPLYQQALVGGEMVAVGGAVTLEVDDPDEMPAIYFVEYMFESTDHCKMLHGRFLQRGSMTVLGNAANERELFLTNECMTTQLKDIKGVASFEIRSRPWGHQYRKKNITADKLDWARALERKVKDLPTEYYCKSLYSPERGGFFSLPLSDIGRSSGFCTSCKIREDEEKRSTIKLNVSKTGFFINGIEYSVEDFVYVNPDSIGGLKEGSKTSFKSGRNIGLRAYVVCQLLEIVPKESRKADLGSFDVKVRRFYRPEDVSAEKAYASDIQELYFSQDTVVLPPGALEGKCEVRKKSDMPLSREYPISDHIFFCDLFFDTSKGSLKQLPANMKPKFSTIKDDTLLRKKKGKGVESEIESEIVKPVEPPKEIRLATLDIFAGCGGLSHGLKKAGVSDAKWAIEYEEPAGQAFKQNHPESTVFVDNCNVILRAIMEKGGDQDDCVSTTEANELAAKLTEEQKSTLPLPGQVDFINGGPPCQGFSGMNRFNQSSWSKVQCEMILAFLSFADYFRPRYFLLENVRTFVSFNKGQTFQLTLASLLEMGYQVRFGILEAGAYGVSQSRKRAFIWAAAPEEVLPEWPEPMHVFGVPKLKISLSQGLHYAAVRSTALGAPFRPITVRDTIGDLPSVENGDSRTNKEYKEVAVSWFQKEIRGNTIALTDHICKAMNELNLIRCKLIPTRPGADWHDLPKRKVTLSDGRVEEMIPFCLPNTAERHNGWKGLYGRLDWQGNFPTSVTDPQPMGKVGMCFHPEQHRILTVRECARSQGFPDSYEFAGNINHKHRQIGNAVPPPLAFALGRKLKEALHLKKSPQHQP
# Experiment: cryo-EM structure (2.74 A), covalent complex purified by SEC
# Conditions: SAH in the structure, irreversible covalent complex with 5fC, upper strand: 5-methylcytosine at C6, lower strand: 5-fluorocytosine at C6 as printed, recombinant protein, residues 621-1534, protein details: GST tag cleaved (HRV3C, pGEX-6P-1)
sequence,measurement,value
ACTTACGGAAGG (double strand) [12 bp hemimethylated DNA (5mCG/5fCG)],binding result,binds

# Protein sequences can lack the tags named with them.
